According to PubChem BioAssay AID330 (DTP/NCI, 2004):
The list does not hold the whole screen: it gathers tests that were run many times, whatever their T/C, doses with no T/C, and many T/C values between a quarter and a half above the control. Other doses and runs of a compound stand elsewhere. T/C gives the treated animals as a percentage of the vehicle group. Some doses have a count of surviving animals in place of a T/C: the source holds a T/C of zero for them, seemingly a mark for toxic or unscored doses. Some survivor counts are full or nearly so, which does not show that the dose was tolerated: the source hardly ever lists a survival T/C far under the control, and the zero likely stands for such cases as well. Survivors were counted at the toxicity check, usually on the fifth day, unless a day is given; later deaths do not show. Schedule codes are those of the source, read here as Q, the interval in days (D) or hours (H), X, the number of doses. Some entries hold several experiments; the values are given in rising order. For survival time, the PubChem record calls one and a half times the control and up active, and a quarter to a half above the control has no call in these data; cut-offs in other NCI protocols can differ. Some T/C values are followed by the survivors on the day toxicity was checked, most often the fifth; without a count, all were alive then.

System: P388 leukemia ip, CD2F1 mice, survival T/C
Assay: NCI In Vivo Anticancer Drug Screen. Data for tumor model P388 Leukemia (intraperitoneal) in CD2F1 (CDF1) mice
Conditions: T/C endpoint: median survival time, higher T/C = longer survival
[1] = dose: 50.0 mg/kg/injection, schedule: Q01DX009 (ip), vehicle: saline with Tween-80
[2] = dose: 100.0 mg/kg/injection, schedule: Q01DX009 (ip), vehicle: saline with Tween-80
[3] = dose: 200.0 mg/kg/injection, schedule: Q01DX009 (ip), vehicle: saline with Tween-80
[4] = dose: 200.0 mg/kg/injection, schedule: Q01DX005 (ip), vehicle: saline with Tween-80
[5] = dose: 120.0 mg/kg/injection, schedule: Q01DX005 (ip), vehicle: saline with Tween-80
[6] = dose: 240.0 mg/kg/injection, schedule: Q01DX005 (ip), vehicle: saline with Tween-80
[7] = dose: 200.0 mg/kg/injection, schedule: Q01DX005 (ip), vehicle: Klucel (hydroxypropylcellulose) (HPC)
[8] = dose: 200.0 mg/kg/injection, schedule: Q01DX009 (ip), vehicle: saline
[9] = dose: 25.0 mg/kg/injection, schedule: Q04DX002 (ip), vehicle: saline with Tween-80
[10] = dose: 200.0 mg/kg/injection, schedule: Q01DX009 (ip), vehicle: Klucel (hydroxypropylcellulose) (HPC)

Q: For `CCOC(=O)/C=C(/C)Sc1cc(O)c2ccccc2c1O`, which survivor count (dose: 12.5 mg/kg/injection, schedule: Q01DX009 (ip), vehicle: saline with Tween-80) is on record?
A: Its survivor count is 2 of 6.

Q: What about the survivor count (dose: 25.0 mg/kg/injection, schedule: Q01DX009 (ip), vehicle: saline with Tween-80) of the same compound?
A: The survivor count was 1 of 6.

Q: And the survivor count [1]?
A: The survivor count was 0 of 6.

Q: What about the survivor count [2] of the same compound?
A: Its survivor count is 0 of 6.

Q: And the survivor count [3]?
A: The survivor count was 0 of 6.

Q: `CSc1nc(Cl)c(Br)c(N2CC2)n1` was tested. Which survivor count [4] did it give?
A: The survivor count was 0 of 6.

Q: What does the source list for `ClCCCN1CCN(CCCCl)CC1`?
A: T/C (dose: 50.0 mg/kg/injection, schedule: Q01DX009 (ip), vehicle: distilled water + alcohol): 132 and 142 % of control; survivor count (dose: 200.0 mg/kg/injection, schedule: Q01DX009 (ip), vehicle: distilled water + alcohol): 1 of 6

Q: What does the source list for `NCC(=O)O`?
A: survivor count (dose: 30.0 mg/kg/injection, schedule: Q01DX005 (ip), vehicle: saline): 3 of 6; survivor count (dose: 60.0 mg/kg/injection, schedule: Q01DX005 (ip), vehicle: saline): 0 of 6; survivor count (dose: 120.0 mg/kg/injection, schedule: Q01DX005 (ip), vehicle: saline): 0 of 6; survivor count (dose: 240.0 mg/kg/injection, schedule: Q01DX005 (ip), vehicle: saline): 0 of 6

Q: For `CCOC(=O)/C=C(\I)C(=O)OCC`, which survivor count [1] is on record?
A: Its survivor count is 0 of 6.

Q: And the survivor count [2]?
A: Its survivor count is 0 of 6.

Q: And the survivor count [3]?
A: Its survivor count is 0 of 6.

Q: `CC1(C)CC2(C)OC(=O)c3ccccc3N2C(=S)N1` (centres undefined) was tested. Which survivor count [5] did it give?
A: The survivor count was 6 of 6.

Q: And the survivor count [6]?
A: Its survivor count is 6 of 6.

Q: With `Cc1nc2ccccc2c(=O)n1/N=C1/C(=O)Nc2ccccc21` as the compound, how does the survivor count (dose: 50.0 mg/kg/injection, schedule: Q01DX005 (ip), vehicle: Klucel (hydroxypropylcellulose) (HPC)) read?
A: The survivor count was 6 of 6.

Q: What does the source list for `COc1cc2c(c3c1c(=O)c1ccccc1n3C)C=CC(C)(C)O2`?
A: survivor count [7]: 2 of 6; survivor count [4]: 0 of 6; survivor count (dose: 400.0 mg/kg/injection, schedule: Q01DX005 (ip), vehicle: Klucel (hydroxypropylcellulose) (HPC)): 0 of 6

Q: What does the source list for `CC(CN)c1ccccc1` (centres undefined)?
A: survivor count (dose: 100.0 mg/kg/injection, schedule: Q01DX009 (ip), vehicle: saline): 3 of 6; survivor count [8]: 0 of 6

Q: What does the source list for `N#CC(=O)c1ccccc1`?
A: survivor count (dose: 25.0 mg/kg/injection, schedule: Q04DX003 (ip), vehicle: saline with Tween-80): 2 of 6; survivor count (dose: 50.0 mg/kg/injection, schedule: Q04DX003 (ip), vehicle: saline with Tween-80): 0 of 6; survivor count (dose: 100.0 mg/kg/injection, schedule: Q04DX003 (ip), vehicle: saline with Tween-80): 0 of 6; survivor count (dose: 200.0 mg/kg/injection, schedule: Q04DX003 (ip), vehicle: saline with Tween-80): 0 of 6

Q: Which survivor count (dose: 200.0 mg/kg/injection, schedule: Q04DX003 (ip), vehicle: Klucel (hydroxypropylcellulose) (HPC)) does the source give for `C1=CC2(C=CC13OCCO3)OCCO2` here?
A: Its survivor count is 3 of 6.

Q: And the survivor count (dose: 400.0 mg/kg/injection, schedule: Q04DX003 (ip), vehicle: Klucel (hydroxypropylcellulose) (HPC))?
A: Its survivor count is 2 of 6.

Q: Which survivor count (dose: 400.0 mg/kg/injection, schedule: Q01DX009 (ip), vehicle: olive oil, sesame oil, peanut oil) does the source give for `COc1cccc(/C=N/NC(=O)c2ccccc2N2CCCC2)c1O` here?
A: Its survivor count is 4 of 6.

Q: Which results are given for `CC(=O)[O][Hg][c]1s[c]([Hg][O]C(C)=O)[c]([Hg][O]C(C)=O)[c]1[Hg][O]C(C)=O`?
A: T/C (dose: 1.5 mg/kg/injection, schedule: Q01DX009 (ip), vehicle: saline with Tween-80): 130 % of control; T/C (dose: 6.0 mg/kg/injection, schedule: Q01DX009 (ip), vehicle: saline with Tween-80): 145 % of control

Q: For `Clc1ncn[nH]1`, which survivor count (dose: 600.0 mg/kg/injection, schedule: Q01DX001 (ip), vehicle: Klucel (hydroxypropylcellulose) (HPC)) is on record?
A: The survivor count was 1 of 6.

Q: With `OCc1ccc(Cl)cc1O` as the compound, how does the survivor count (dose: 400.0 mg/kg/injection, schedule: Q01DX009 (ip), vehicle: distilled water + Tween-80) read?
A: Its survivor count is 3 of 6.

Q: For `O=C1NC(=O)C2C3OC(C12)C1C2C(=O)NC(=O)C2C31` (centres undefined), which survivor count [4] is on record?
A: Its survivor count is 4 of 6.

Q: For `CSc1nccc(=O)n1-c1ccccc1Cl`, which survivor count (dose: 400.0 mg/kg/injection, schedule: Q04DX003 (ip), vehicle: saline with Tween-80) is on record?
A: Its survivor count is 0 of 6.

Q: `C=C1C(O)C2(O)OCC34C(CC5C(C)=CC(=O)C(O)C5(C)C23)OC(=O)C(O)C14O` (centres undefined) was tested. Which survivor count (dose: 12.5 mg/kg/injection, schedule: Q01DX009 (ip), vehicle: saline) did it give?
A: Its survivor count is 3 of 6.

Q: And the survivor count (dose: 25.0 mg/kg/injection, schedule: Q01DX009 (ip), vehicle: saline)?
A: Its survivor count is 0 of 6.

Q: How did the survivor count [8] turn out when `Cc1cccc(Oc2ccc(C(F)(F)F)cc2[N+](=O)[O-])c1C` was run?
A: The survivor count was 6 of 6.

Q: What does the source list for `CCCCCCCCCCCCN1C(C)=CS/C1=C\C=C\c1scc(C)[n+]1CCCCCCCCCCCC`?
A: T/C (dose: 0.75 mg/kg/injection, schedule: Q01DX005 (ip), vehicle: saline with Tween-80): 129 % of control; T/C (dose: 1.5 mg/kg/injection, schedule: Q01DX005 (ip), vehicle: saline with Tween-80): 133 and 144 % of control; T/C (dose: 1.56 mg/kg/injection, schedule: Q04DX002 (ip), vehicle: saline with Tween-80): 125 and 144 % of control; T/C (dose: 3.0 mg/kg/injection, schedule: Q01DX005 (ip), vehicle: saline with Tween-80): 149 % of control; T/C (dose: 3.13 mg/kg/injection, schedule: Q04DX002 (ip), vehicle: saline with Tween-80): 140 % of control; survivor count (dose: 6.0 mg/kg/injection, schedule: Q01DX005 (ip), vehicle: saline with Tween-80): 6 of 6; T/C (dose: 6.25 mg/kg/injection, schedule: Q04DX002 (ip), vehicle: saline with Tween-80): 144 % of control [5 of 6 alive]; survivor count (dose: 12.0 mg/kg/injection, schedule: Q01DX005 (ip), vehicle: saline with Tween-80): 4 of 6 and 6 of 6; T/C (dose: 12.5 mg/kg/injection, schedule: Q04DX002 (ip), vehicle: saline with Tween-80): 144 % of control [4 of 6 alive]; T/C [9]: 142 % of control [5 of 6 alive]; survivor count [9]: 5 of 6 and 6 of 6; survivor count (dose: 50.0 mg/kg/injection, schedule: Q04DX002 (ip), vehicle: saline with Tween-80): 3 of 6; survivor count (dose: 100.0 mg/kg/injection, schedule: Q04DX002 (ip), vehicle: saline with Tween-80): 1 of 6; survivor count (dose: 200.0 mg/kg/injection, schedule: Q04DX002 (ip), vehicle: saline with Tween-80): 0 of 6

Q: `COC(=O)c1[nH]c(=O)[nH]c(=O)c1F` was tested. Which T/C (dose: 2.0 mg/kg/injection, schedule: Q01DX009 (ip), vehicle: saline with Tween-80) did it give?
A: The T/C was 136 % of control.

Q: And the T/C (dose: 4.0 mg/kg/injection, schedule: Q01DX009 (ip), vehicle: saline with Tween-80)?
A: The T/C was 145 % of control.

Q: What about the T/C (dose: 33.0 mg/kg/injection, schedule: Q04DX003 (ip), vehicle: saline with Tween-80) of the same compound?
A: The T/C was 130 % of control.

Q: And the T/C (dose: 75.0 mg/kg/injection, schedule: Q04DX003 (ip), vehicle: saline with Tween-80)?
A: Its T/C is 130 % of control.

Q: How did the survivor count (dose: 100.0 mg/kg/injection, schedule: Q01DX001 (ip), vehicle: Klucel (hydroxypropylcellulose) (HPC)) turn out when `COP(=O)(O)OC` was run?
A: Its survivor count is 6 of 6.

Q: How did the survivor count [7] turn out when `COc1ccc(C(O)(CCN2CCOCC2)c2ccc3c(c2)OCO3)cc1` (centres undefined) was run?
A: Its survivor count is 6 of 6.

Q: What does the source list for `Cc1ccc(-n2c(CSc3ccc(Cl)cc3)nnc2SCc2nc3ccccc3[nH]2)cc1`?
A: survivor count [5]: 6 of 6; survivor count [6]: 6 of 6

Q: How did the survivor count [1] turn out when `O=[N+]([O-])C1CCC(O)C([N+](=O)[O-])C1` (centres undefined) (tested in a mixture with another compound) was run?
A: Its survivor count is 2 of 6.

Q: And the survivor count [2]?
A: The survivor count was 0 of 6.

Q: What about the survivor count [3] of the same compound?
A: The survivor count was 0 of 6.

Q: `Cc1nc(-c2ccccc2)oc1C(N)=O` was tested. Which survivor count [10] did it give?
A: The survivor count was 6 of 6.

Q: For `Cc1ccc2c3c1CCCN3CCC2`, which survivor count (dose: 200.0 mg/kg/injection, schedule: Q04DX003 (ip), vehicle: saline) is on record?
A: The survivor count was 1 of 6.

Q: With `C/C(=N\N=P(c1ccccc1)(c1ccccc1)c1ccccc1)C(C)(C)C` as the compound, how does the survivor count (dose: 50.0 mg/kg/injection, schedule: Q01DX009 (ip), vehicle: Klucel (hydroxypropylcellulose) (HPC)) read?
A: The survivor count was 3 of 6.

Q: And the survivor count (dose: 100.0 mg/kg/injection, schedule: Q01DX009 (ip), vehicle: Klucel (hydroxypropylcellulose) (HPC))?
A: The survivor count was 0 of 6.

Q: What about the survivor count [10] of the same compound?
A: The survivor count was 0 of 6.
